## Library screen at single concentrations

By UniProt entry, the sequences of proteins in these tests, tags left out.
UniProt P9WPC5, whole entry: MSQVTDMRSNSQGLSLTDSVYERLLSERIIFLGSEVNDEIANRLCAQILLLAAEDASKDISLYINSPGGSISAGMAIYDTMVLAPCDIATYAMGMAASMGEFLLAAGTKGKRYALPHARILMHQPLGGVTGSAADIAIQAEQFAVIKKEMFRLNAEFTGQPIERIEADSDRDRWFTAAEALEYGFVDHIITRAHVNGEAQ
UniProt P9WPC3, whole entry partner: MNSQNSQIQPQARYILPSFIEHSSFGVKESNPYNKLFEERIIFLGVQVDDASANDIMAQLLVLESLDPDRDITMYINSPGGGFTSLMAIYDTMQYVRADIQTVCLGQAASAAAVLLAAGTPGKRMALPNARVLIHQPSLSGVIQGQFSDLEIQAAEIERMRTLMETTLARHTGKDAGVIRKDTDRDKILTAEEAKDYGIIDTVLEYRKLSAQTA

Source: ChEMBL document CHEMBL3988442, “University of Dundee, Small-Polar-MMV Screening Library” (2021).

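ClpP1P2, Mycobacterium tuberculosis (UniProt P9WPC5 and UniProt P9WPC3). Protease assay of ClpP1P2, read by the AMC dye that it sets free. Concentration: 50 µM. Higher reads as stronger inhibition, judged from the few compounds that gave an IC50. Most other retested compounds had strongly negative values. Size under these conditions: about 69,000 compounds, about 10 of them at 50% or above in at least one test.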

The filed quantity is “Percent Effect” (%).
The controls that fix the scale are not given in the record; negative values are as filed.
Compounds were drawn at random from those tested, without regard to their results.

* Cc1cccc(CC(=O)Nc2cnn(C3CCOC3)c2)c1 (stereo not given) : -12.88%
* COc1ccc(-c2nnc([C@H]3CCN(CC4CC4)C3)o2)cc1 : -3.768%
* CC(C)(C)OC(=O)N1CCCCC(NC(=O)CCc2cccnc2)C1 (stereo not given) : 15.35%
* COCCN(Cc1ccccn1)C(=O)C1CCCCCN1C (stereo not given) : -23.74%
* O=C(Nc1ccc(F)cc1F)Nc1c[nH]c(=O)[nH]c1=O : -0.588%
* CCCOc1cccc(OCc2ccon2)c1 : -1.135%
* CN(Cc1cccnc1)C(=O)NC1CCN(Cc2ccccn2)CC1 : -18.7%
* COCCCNC(=O)c1c(C)noc1C(C)C : 3.574%
* Fc1ccc(COCC2CCN(Cc3ccccn3)CC2)cc1 : 8.664%
* O=C(c1cc[nH]n1)N1CCCC1c1cncc(CN2CCOCC2)n1 (stereo not given) : -20.7%
* Cc1ccc(C2CCCN2Cc2nc(-c3ccco3)no2)cc1 (stereo not given) : 6.081%
* Cn1ccnc1C1CCN(S(=O)(=O)c2ccc3c(c2)OCCO3)CC1 : 14.41%
* CC(C)Oc1ccccc1CNC(=O)c1[nH]ncc1Br : 3.612%
* CN(C)c1ncc2c(n1)C1(CCN(Cc3cccnc3)C1)COC2 (stereo not given) : -11.04%
* Cc1ccc(NC(=O)NCCCn2nc3ccccn3c2=O)cc1 : -26.15%
* CN(C)S(=O)(=O)N1CC[C@]2(O)CCN(c3nc4ccccc4s3)C[C@@H]2C1 : -3.505%
* Cn1nc(Br)c2c(NCCSCCCO)ncnc21 : 4.869%
* CCc1nc(C)c([C@H]2CN(C)C[C@@H]2C(=O)Nc2ccc3[nH]ncc3c2)[nH]1 : -4.676%
* O=C(NC[C@@]1(COc2cnccn2)C[C@@H](O)[C@@H](O)C1)C1CCCC1 : -6.144%
* CCc1csc(C2CCCN(C(=O)c3ccc(OC)nn3)C2)n1 (stereo not given) : -4.698%
* CCOC(C)c1noc(CN2CCCN(c3ccccn3)CC2)n1 (stereo not given) : -0.9712%
* CC(C)c1nnsc1CNC(=O)C1CCN(C(=O)C2CCCC2)CC1 : -10.92%
* CNC(=O)C1(c2cnccn2)CCCN1C(=O)c1cccc(F)c1 (stereo not given) : 11.41%
* CCOc1ccc(C(=O)N(C)Cc2nccn2CC(F)(F)F)cc1 : 0.8996%
* CN1CCCc2cc(CNC(=O)c3cc[n+]([O-])cc3)ccc21 : -5.551%
* COC[C@@]12CCO[C@@H]1CCN(Cc1ccc(C)s1)C2 : 0.7656%
* CCc1nc(C2CCCN(C(=O)c3ccccc3F)C2)no1 (stereo not given) : -10.07%
* Cc1cnn(CC2CN(CC(=O)N(C)Cc3cccs3)CCO2)c1 (stereo not given) : -13.19%
* O=C(CCc1ccncc1)NCc1csc(Br)c1 : -7.292%
* CC(C)Nc1nc2c(cc1C(=O)N(C)C)CCNCC2 : 0.3583%
* CCN1CCN(S(=O)(=O)c2cc(C)c(Cl)cc2C)CC1 : -17.67%
* CCCC(=O)N1CCC2(CC1)COC2 : -15%
* COCCNC(=O)c1ccc(NCc2csc(C)n2)cc1Cl : 7.61%
* Cc1nn(C)c(N(C)C)c1CNC(C)c1cccc(OC(C)C)c1 (stereo not given) : -1.26%
* COc1cccc(NC(=O)C(C)Cn2cc(Cl)cn2)c1 (stereo not given) : 9.705%
* CC(C)(C)c1noc(CCC(=O)NCC2CCS(=O)(=O)C2)n1 (stereo not given) : -23.7%
* Cc1nc(CCNC(=O)C2CCN(C(C)C)CC2)sc1Cl : -1.254%
* CC(CN1CCOCC1)NC(=O)N1CCN(S(C)(=O)=O)CC1 (stereo not given) : 0.8869%
* CN(C)CC1(O)CCCN(Cc2cnc(-c3ccco3)nc2)CC1 (stereo not given) : -5.511%
* CC(=O)N[C@@H]1CN(Cc2oc3ccccc3c2C)C[C@H]1c1ccc(C)o1 : 7.671%
* CC1CCCN(C(=O)c2csc(S(N)(=O)=O)c2)CC1 (stereo not given) : -21.35%
* CC(C)COCC1CN(Cc2cnn(C)c2)Cc2ncn(C)c21 (stereo not given) : -12.87%
* CN1CCOC(C(=O)Nc2nc(-c3ccc4c(c3)CCC4)n[nH]2)C1 (stereo not given) : -14.47%
* CC(CNc1cncc(-n2cccn2)n1)N(C)c1ccccc1 (stereo not given) : 18.47%
* CC1CN(c2cc(CNCc3cccc4c3OCCO4)ccn2)CCO1 (stereo not given) : 10.81%
* c1ccc(N2CCC(c3ccncc3)CC2)cc1 : -10.41%
* Cc1[nH]c2c(C)ccc(C)c2c1CC(=O)NCc1csc(N(C)C)n1 : 5.903%
* CCn1ncc(S(=O)(=O)N[C@@H]2CC[C@@H](n3ccnc3C)[C@@H]2O)c1C : 0.01334%
* COc1ccc(C(=O)NCC2CCCN(C3CCOCC3)C2)c(O)c1 (stereo not given) : 8.446%
* Cc1nn(Cn2ccc(C(=O)N3CCC(C)CC3)n2)c(C)c1Cl : 1.616%
* Cc1ncc(C(=O)N2CCC(C(=O)NC3CCCC3)C2)c(C)n1 (stereo not given) : -14.54%
* COCc1n[nH]c2c1CN(Cc1ccccn1)C2 : -7.021%
* CN1CCC(c2cncc(N(C)C)n2)CC1 : -4.689%
* Cc1ncsc1CN1CC[C@](C)(O)[C@@H](Oc2cccc(F)c2)C1 : 4.202%
* CC(C)(C)c1nnnn1CC(=O)N(CCC#N)c1ccccc1 : 2.616%
* CC(C)Cc1cc(C(=O)NCCc2ccc(S(C)(=O)=O)cc2)[nH]n1 : -6.482%

The first 5 entries again:

structure,effect
Cc1cccc(CC(=O)Nc2cnn(C3CCOC3)c2)c1 (stereo not given),-12.88
COc1ccc(-c2nnc([C@H]3CCN(CC4CC4)C3)o2)cc1,-3.768
CC(C)(C)OC(=O)N1CCCCC(NC(=O)CCc2cccnc2)C1 (stereo not given),15.35
COCCN(Cc1ccccn1)C(=O)C1CCCCCN1C (stereo not given),-23.74
O=C(Nc1ccc(F)cc1F)Nc1c[nH]c(=O)[nH]c1=O,-0.588